From paper PMC7712824

Molecular target: CTD of Mfa5 (Halo chimera) (Porphyromonas gingivalis) (UniProt B2RHG5)
Experiment: pull-down; porN mutant cells expressing a Halo-CTD chimera treated with DTBP; partially purified sample bound to HaloLink Resin, washed three times, eluted with SDS sample buffer containing dithiothreitol, immunoblot with anti-PorV

Substance: PorV (PGN_0023) (from UniProt A0A134DMH4)
- binding: binds

Results are given in words; binding and its absence hold for the method and conditions named. Binding seen in cells or lysates may run through a third protein. A result given as binding can be weak or reduced; the word gives no strength.
